# This is one part of the list.
# Test system: T1, CTL2-GFP (C. trachomatis L2/434/Bu, GFP-expressing)
# T1 construct: L2/434/Bu, GFP-expressing
# Design: species or system HeLa; Intracellular C. trachomatis growth in HeLa cells, bulk GFP fluorescence relative to DMSO
# Conditions: bulk GFP, single well; 28.5 h, 10 µM; inhibitor
row,SMILES,% of control remaining
1,COc1ccccc1-c1nccnc1OCCn1cccc1 [CBK106820],162.024%
2,CS(=O)(=O)N1CCCC(C(=O)Nc2ccc(S(N)(=O)=O)cc2)C1 (stereo not drawn) [CBK268490],106.688%
3,O=C(NCCc1cccs1)Nc1ccc2c(c1)C(F)(F)OC(F)(F)O2 [CBK045255],99.6682%
4,CS(=O)(=O)N1CC2(CCN(Cc3ccc4nsnc4c3)CC2)c2ccccc21 [CBK136957],115.283%
5,Oc1ccc(Nc2cc(-c3ccccc3)ncn2)cc1 [CBK291157],99.3259%
6,CC(NC1CCCN(c2ccc(C#N)cc2)C1=O)c1cncc(F)c1 (stereo not drawn) [CBK306404],126.335%
7,CN(C)CC(C)(C)CNC(=O)C1(c2ccccc2)CCCC1 [CBK149532],87.0361%
8,CC1(C)OC(N2CCN(Cc3ccccc3)CC2)=Nc2ccccc21 [CBK023933C],123.525%
9,Cc1nn(CC(=O)Nc2ccc3c(c2)nc(CN2CCCC2)n3C)c(=O)c2ccccc12 [CBK268465],129.35%
10,O=C(O)CCC(=O)Nc1ccc(S(=O)(=O)Nc2ccc(I)cc2)cc1 [CBK264866],32.7932%
11,CCn1cc(CN2CCCCCC2c2cc(C)no2)c(C)n1 (stereo not drawn) [CBK282159],162.766%
12,Cc1ccn2c(-c3csc(Nc4ccc(S(N)(=O)=O)cc4)n3)c(C)nc2c1 [CBK263304B],69.8048%
13,O=C(Nc1ccncc1)c1ccc(S(=O)(=O)N2CCCC2)cc1 [CBK287786],100.454%
14,Cc1ccc(-n2c(O)nnc2-c2ccc(Cl)c(Cl)c2)cc1 [CBK074887],109.042%
15,O=C1c2ccc(-n3c(=O)c4cc5c(=O)n(-c6ccc7c(c6)C(=O)N(c6ccccc6)C7=O)c(=O)c5cc4c3=O)cc2C(=O)N1c1ccccc1 [CBK262136],111.134%
16,Cc1ccc(S(=O)(=O)Nc2ccc(N3C[C@@H](C)N[C@@H](C)C3)c3ccccc23)cc1 [CBK001486C],82.3799%
17,CC(C)NC1=NC(=O)C(CC(=O)Nc2ccccc2)S1 (stereo not drawn) [CBK013880],108.506%
18,Fc1ccc(CN2CCC(c3n[nH]c4ncccc34)CC2)cc1 [CBK284902],117.51%
19,COc1ccc2c(c1)C(=O)NC1(CCN(C(=O)c3ccc(OC)c(C)c3)CC1)O2 [CBK166291],153.754%
20,O=C(CSCc1c(F)cccc1Cl)Nc1ccc(S(=O)(=O)N2CCCCC2)cc1 [CBK268034],42.6353%
21,Cc1ccc2cc(CN(Cc3ccccc3)S(C)(=O)=O)c(O)nc2c1 [CBK269329],162.124%
22,O=c1n(Cc2ccccn2)c2cccnc2n1Cc1cccs1 [CBK283867],115.542%
23,Cc1ccc(C#N)cc1S(=O)(=O)NC1CC(=O)c2ccccc21 (stereo not drawn) [CBK304030],97.0188%
24,O=C(Cc1ccncc1)NC1Cc2ccccc2C1 [CBK200351],103.982%
25,Cc1c(C(=O)Nc2ccccn2)sc2nc(-c3ccccc3)cn12 [CBK287501],176.743%
26,CCOC(=O)c1cccnc1-c1ccc(S(C)(=O)=O)cc1 [CBK149242],79.3737%

row,SMILES,% of control remaining
1,CN(C)CCN(Cc1ccccc1)C(=O)Nc1cccnc1 [CBK145047],143.112%
2,CCn1nc(C)c(-c2cncn2CC(C)N2CCC(C)CC2)c1C (stereo not drawn) [CBK281593],123.48%
3,COc1ccc(-c2cc3cccnc3n2CC(=O)N2CCCC2)cc1 [CBK285379],117.759%
4,O=C(Nc1ccc(S(=O)(=O)N2CCOCC2)cc1)c1cc(-c2ccccc2)nc2ccccc12 [CBK264790],112.437%
5,COc1ccc2c(c1)-c1c(ss/c1=N\c1ccc(S(N)(=O)=O)cc1)C(C)(C)N2 [CBK263339],67.1629%
6,CCOC(=O)C1CCN(S(=O)(=O)c2ccc(Cl)s2)CC1 [CBK096109],95.1372%
7,O=C(NCc1cccnc1)c1ccc(CSc2ccccc2)cc1 [CBK300544],104.411%
8,CC(C)N(CCOc1nccnc1-c1cnn(C)c1)C(C)C [CBK107084],87.0877%
9,Cn1ncc(N2CCC(CNC(=O)c3cc(F)ccc3Cl)C2)cc1=O (stereo not drawn) [CBK307286],96.9935%
10,Cn1nnnc1SCCNC(=O)Nc1ccc(CN2CCOCC2)cc1 [CBK307084],135.721%
11,CCn1cc(CN2CCCN(C(=O)c3cc(Cl)c[nH]3)CC2)cn1 [CBK306153],152.878%
12,CC(=O)C1=C(O)C(=O)N(CCCO)C1c1cccc([N+](=O)[O-])c1 (stereo not drawn) [CBK263753],100%
13,COc1ccc(-n2c3c(cc(C(=O)Nc4ccccc4Br)c2=O)C(=O)CCC3)cc1 [CBK293945],168.742%
14,O=C(c1ccco1)N1CCN(c2ncccn2)CC1 [CBK144524],145.611%
15,O=S(=O)(Cc1ccc(Br)cc1)c1cc2c(N3CCNCC3)nccc2s1 [CBK045688C],121.789%
16,c1ccc2c(c1)CCCN2CCc1c[nH]c2ccccc12 [CBK138330],147.014%
17,Cc1noc(C)c1CC(=O)NC(C)CCc1ccc(F)cc1 (stereo not drawn) [CBK281511],129.145%
18,O=C(O)C(CC(=O)N1CCOCC1)NCc1ccccc1 (stereo not drawn) [CBK267000],124.382%
19,O=C(O)c1cc(-n2c(S)nnc2-c2ccc3ccccc3n2)ccc1Cl [CBK269512],142.619%
20,CC(=O)Nc1nc(OCCN2CCCC2=O)cnc1/C=C\c1ccccc1 [CBK145371],114.519%
21,O=C(O)/C(O)=C/C(=O)c1ccc(Cl)cc1 [CBK261841],105.969%
22,C=CCNC(=O)C1(Cc2ccccc2-c2cccnc2)CCOCC1 [CBK285217],104.041%
23,Cc1cccc(NC(=O)c2ccc3n[nH]c(=S)n3c2)c1 [CBK288389],135.628%
24,Cc1cc2c(cc3c(=O)n(CC(=O)NC(C)(C)C)nc(C)n32)s1 [CBK284070],130.357%
25,CCCS(=O)(=O)n1c(=O)n(CC(=O)c2ccc(N(CC)CC)cc2)c2ccccc21 [CBK106504],102.76%
26,N/C(=N\OC(=O)COc1ccc2ccccc2c1)c1ccncc1 [CBK263737],104.673%

row,SMILES,% of control remaining
1,CC(C)N(C(=O)N1CCC2(CC1)CC(=O)c1ccccc1O2)C(C)C [CBK284010],96.0367%
2,O=C(CCC(=O)OCN1C(=O)c2ccccc2C1=O)Nc1ccc2ccccc2c1 [CBK265277],132.17%
3,COc1ccccc1-c1nnc(NCc2ccc3c(c2)OCO3)nc1-c1ccccc1OC [CBK286284],100.458%
4,O=C(Nc1ccc(Br)cc1)C1CCCN1S(=O)(=O)c1ccc(Cl)cc1 (stereo not drawn) [CBK155481],112.857%
5,O=C(C1CC1)N1CCC(c2nnc(-c3ccsc3)o2)CC1 [CBK283376],129.493%
6,Cc1nn(-c2ccc(C(=O)O)cc2)c2c1C(=O)CC(C)(C)C2 [CBK286734],133.197%
7,CSCCCNC(=O)N(CCc1ccccc1)Cc1ccccc1 [CBK155317],116.456%
8,Nc1nc(OCCN2CCOCC2)cnc1-c1cc(Cl)cc(Cl)c1 [CBK145198],82.247%
9,COc1ccc([C@@]23CC[C@@H](NC(=O)c4cccc(Cl)c4)C[C@@H]2N(C)CC3)cc1OC [CBK073982T],98.4929%
10,Cc1nc(C)c(C(=O)N2CCCC(C(=O)c3ccc(F)cc3)C2)s1 (stereo not drawn) [CBK305296],115.144%
11,COCCC1CN(c2nc(N(C)C)nc3c2CCN(C(C)=O)C3)CCO1 (stereo not drawn) [CBK307464],144.177%
12,NCC(=O)Nc1ccc(Br)cc1C(=O)c1ccccc1Cl [CBK264692B],103.929%
13,Cc1cccc2cc3c(nc12)OCC(=O)N(Cc1ccco1)C3 [CBK283816],87.9842%
14,COc1ccc([C@@]23CC[C@@H](NC(=O)Nc4nc(Cl)cc(Cl)n4)C[C@@H]2N(C)CC3)cc1OC [CBK067083T],102.581%
15,Cc1nn(C)c(Oc2ccccc2OCc2ccccc2)c1[N+](=O)[O-] [CBK000281],112.955%
16,C[S+]([O-])CCNC(=O)c1cc(-c2cccs2)no1 (stereo not drawn) [CBK282563],112.175%
17,O=C(O)C1CCN(C(=O)[C@@H]2Cc3ccccc3CN2)CC1 [CBK286638],93.4726%
18,O=C1NC(c2ccccc2)Cc2onc(-c3ccccc3)c21 (stereo not drawn) [CBK004409],86.2186%
19,Fc1ccccc1-c1cn2ccnc2c(NCCc2cccnc2)n1 [CBK037473],154.399%
20,N#CCCCN1CCN(c2nccnc2OCc2ccc(Cl)c(Cl)c2)CC1 [CBK083086T],104.186%
21,NS(=O)(=O)c1cccc(NC(=O)COc2ccc([N+](=O)[O-])cc2)c1 [CBK263624],108.36%
22,CN(C1=NS(=O)(=O)c2ccccc21)c1ccc(OC(=O)C2CC(=O)N(c3ccccc3)C2)cc1 (stereo not drawn) [CBK263849],125.616%
23,CS(=O)(=O)c1nnn(CC#N)n1 [CBK026075],104.539%
24,Cc1cccc(C)c1OCCOCC(O)CN1CCN(C)CC1 (stereo not drawn) [CBK278206C],117.983%
25,COCCNC(=O)CN(C)c1cnc2ccccc2n1 [CBK305265],94.5457%
26,Cc1ccc(S(=O)(=O)Nc2ccc(C3(c4ccc(NS(=O)(=O)c5ccc(C)cc5)cc4)c4ccccc4C(=O)c4ccccc43)cc2)cc1 [CBK261155],88.2822%

# Reference: publication PMC12040169 (PLOS Biology, 2025)
